Measurements as given in doi:10.1101/2023.07.11.548643.
Results are given in words; binding and its absence hold for the method and conditions named. In cells and extracts the contact can be indirect. Some entries that bind do so weakly or less than the wild type.

Protein sequences, listed by entry. Tags and fused reporters are not part of them.
UniProt P04198: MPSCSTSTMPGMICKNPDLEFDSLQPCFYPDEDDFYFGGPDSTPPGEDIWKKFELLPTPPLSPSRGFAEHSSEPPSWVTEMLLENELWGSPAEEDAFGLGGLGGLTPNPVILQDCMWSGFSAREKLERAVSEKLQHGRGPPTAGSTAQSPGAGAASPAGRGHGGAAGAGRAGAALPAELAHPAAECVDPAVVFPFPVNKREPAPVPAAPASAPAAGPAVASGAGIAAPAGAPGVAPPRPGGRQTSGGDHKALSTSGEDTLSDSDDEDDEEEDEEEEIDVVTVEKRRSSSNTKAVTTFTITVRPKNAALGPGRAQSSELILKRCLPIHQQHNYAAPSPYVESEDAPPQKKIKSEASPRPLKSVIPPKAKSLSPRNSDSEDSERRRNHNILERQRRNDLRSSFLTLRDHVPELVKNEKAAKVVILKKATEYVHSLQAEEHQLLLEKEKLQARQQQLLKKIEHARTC
UniProt Q96KQ7: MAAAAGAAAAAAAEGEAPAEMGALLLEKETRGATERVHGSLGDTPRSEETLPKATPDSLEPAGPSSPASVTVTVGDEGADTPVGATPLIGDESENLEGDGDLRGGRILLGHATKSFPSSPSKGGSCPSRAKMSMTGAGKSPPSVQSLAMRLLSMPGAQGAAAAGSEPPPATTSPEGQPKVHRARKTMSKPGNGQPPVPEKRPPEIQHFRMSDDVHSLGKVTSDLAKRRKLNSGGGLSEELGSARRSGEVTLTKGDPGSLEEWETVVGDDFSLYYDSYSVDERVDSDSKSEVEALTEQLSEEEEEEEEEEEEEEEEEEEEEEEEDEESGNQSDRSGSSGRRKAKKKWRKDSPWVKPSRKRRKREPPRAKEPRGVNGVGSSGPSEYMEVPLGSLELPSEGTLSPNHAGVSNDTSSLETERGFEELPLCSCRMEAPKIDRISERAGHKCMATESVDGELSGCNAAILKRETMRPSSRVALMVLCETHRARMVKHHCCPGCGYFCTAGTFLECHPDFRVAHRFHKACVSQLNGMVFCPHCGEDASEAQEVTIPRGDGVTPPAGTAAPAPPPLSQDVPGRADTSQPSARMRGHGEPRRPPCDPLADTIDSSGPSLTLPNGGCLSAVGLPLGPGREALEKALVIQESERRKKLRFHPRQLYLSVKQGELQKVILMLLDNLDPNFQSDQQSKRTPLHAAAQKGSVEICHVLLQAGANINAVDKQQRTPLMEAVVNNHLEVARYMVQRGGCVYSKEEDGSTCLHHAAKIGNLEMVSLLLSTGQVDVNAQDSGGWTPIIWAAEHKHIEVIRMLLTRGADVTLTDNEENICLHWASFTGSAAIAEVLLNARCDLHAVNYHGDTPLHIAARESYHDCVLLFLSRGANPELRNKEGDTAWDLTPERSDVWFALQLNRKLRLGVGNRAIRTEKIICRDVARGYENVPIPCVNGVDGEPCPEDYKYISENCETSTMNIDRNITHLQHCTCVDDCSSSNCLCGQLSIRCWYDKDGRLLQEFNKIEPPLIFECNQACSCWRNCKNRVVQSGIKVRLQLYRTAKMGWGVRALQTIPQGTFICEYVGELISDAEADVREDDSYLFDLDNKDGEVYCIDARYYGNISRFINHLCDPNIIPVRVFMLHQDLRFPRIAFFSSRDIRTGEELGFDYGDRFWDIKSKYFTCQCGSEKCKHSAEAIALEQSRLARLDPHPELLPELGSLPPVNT

Target: MYCN (human (endogenous in IMR32)) (UniProt P04198)
Assay: co-IP; validation: MYCN co-IP from IMR32 cells and western blot with antibodies to MYCN, G9a and WDR5; Benzonase (500 U/ml) and Mg2+ (2 mM) added as indicated

## G9a (from UniProt Q96KQ7 1-1210)
  binding: binds
